Measurements: patent US10365262B2, “Method of monitoring a parameter of a hydrocarbon well, pipeline or formation” (JOHNSON MATTHEY PUBLIC LIMITED COMPANY, priority 2015, dated 2019)

Assay: Detectability (limit of detection) by GC-MS after solid phase extraction and derivatisation
Conditions: GC-MS (NCI, SIM); tracers diluted to 25-40 ppb in deionised water; calculated from standard error; lower is better
Experimental: Example tracers Ex 1 to Ex 3 were analysed to determine their detectability using GC-MS. The detectability was determined by diluting the tracer using acetonitrile to levels of 10 ppm and analysing it on a GC-MS to determine the retention time. The tracers were then further diluted to 25, 30, 35 and 40 ppb using deionised water. The tracers were then extracted using solid phase extraction and analysed by GC-MS. Prior to extraction the solution is acidified to convert all of the tracer to the acid form. In this way either the anion (for example, the dissolved salt) or the acid can prepared for analysis. For the solid phase extraction 25 ml of the tracer solution with 0.5 ml of internal standard of 2,6-bis(trifluoroethyl)-benzoic acid at a concentration of 1.05 ppm and 0.25 ml of concentrated HCl were run on a solid phase extraction instrument. This technique concentrates the solution 20-fold, e.g. to 40 to 800 ppb. After this technique, 1 ml of sample was added to a GC vial, as well as 0.5 ml of 4% derivatising agent 2,3,4,5,6-pentafluorobenzyl bromide made up with acetone. The sample was heated at 95° C. for 30 minutes and then run on the GC-MS with the following parameters:
Since the purpose of the study was to compare performance between the tracers, the LoD was calculated in arbitrary units that permit direct comparison between the examples. The LoD was calculated based on the standard error of the results obtained, which is used to determine the level at which the tracer could be reliably detected. The results are shown in table 1 along with data for prior art comparative tracers PA 1 to PA 2.

Structure (SMILES)	LoD [arbitrary units]
COc1c(F)cc(C(=O)O)cc1F [Ex 2, 3,5-Difluoro-4-methoxybenzoic acid]	0.0787
O=C(O)c1cccc(OC(F)F)c1 [Ex 1, 3-(Difluoromethoxy)benzoic acid]	0.0825
O=C(O)c1c(F)cccc1F [PA 2, 2,6-Difluorobenzoic Acid, reference compound]	0.2948
O=C(O)c1ccccc1F [PA 1, 2-Fluorobenzoic Acid, reference compound]	0.0577
COc1c(F)ccc(C(=O)O)c1F [Ex 3, 2,4-Difluoro-3-methoxybenzoic acid]	0.1000
